Results taken from paper PMC12708648 (2025).
No constants are given. Whether binding was seen depends on the method and setting. In cells and extracts the contact can be indirect. Where a sequence is shown, tags or fusion partners need not be part of it.

Chains of the proteins cited; added tags and fusions are not shown.
UniProt P68559: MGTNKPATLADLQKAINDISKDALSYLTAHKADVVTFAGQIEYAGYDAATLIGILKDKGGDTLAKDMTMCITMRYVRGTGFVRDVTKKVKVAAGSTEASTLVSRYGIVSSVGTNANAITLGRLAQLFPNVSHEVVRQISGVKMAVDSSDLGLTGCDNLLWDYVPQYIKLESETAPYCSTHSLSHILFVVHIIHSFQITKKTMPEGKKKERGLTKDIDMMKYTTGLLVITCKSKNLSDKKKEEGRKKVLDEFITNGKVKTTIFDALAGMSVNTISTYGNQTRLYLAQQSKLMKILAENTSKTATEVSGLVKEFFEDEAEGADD

Columns and labels:
AtLYK4-FLAG-HA = target: T1, AtLYK4-FLAG-HA (UniProt O64825); assay: co-IP; anti-HA beads on total protein of N. benthamiana leaves transiently co-expressing a FLAG-HA-tagged protein with CP; 4 °C, 3 h
T1 sequence: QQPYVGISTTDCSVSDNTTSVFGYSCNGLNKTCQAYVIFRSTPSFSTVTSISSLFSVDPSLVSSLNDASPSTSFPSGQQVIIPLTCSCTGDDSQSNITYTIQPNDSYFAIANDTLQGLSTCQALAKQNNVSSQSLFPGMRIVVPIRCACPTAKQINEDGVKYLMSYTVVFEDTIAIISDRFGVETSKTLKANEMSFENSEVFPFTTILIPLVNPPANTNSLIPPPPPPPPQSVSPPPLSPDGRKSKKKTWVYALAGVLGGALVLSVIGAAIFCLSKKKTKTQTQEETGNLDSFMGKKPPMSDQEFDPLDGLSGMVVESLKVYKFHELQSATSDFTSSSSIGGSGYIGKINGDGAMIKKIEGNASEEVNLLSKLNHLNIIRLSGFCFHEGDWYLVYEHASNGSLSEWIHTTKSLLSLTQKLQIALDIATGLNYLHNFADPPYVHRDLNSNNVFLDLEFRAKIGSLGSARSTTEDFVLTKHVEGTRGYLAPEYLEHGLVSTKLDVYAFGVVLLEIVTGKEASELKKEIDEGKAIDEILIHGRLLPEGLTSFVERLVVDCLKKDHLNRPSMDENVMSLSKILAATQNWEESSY

[1] = target: T2, AtLYK5-FLAG-HA (Arabidopsis) (UniProt O22808); assay: as above
T2 sequence: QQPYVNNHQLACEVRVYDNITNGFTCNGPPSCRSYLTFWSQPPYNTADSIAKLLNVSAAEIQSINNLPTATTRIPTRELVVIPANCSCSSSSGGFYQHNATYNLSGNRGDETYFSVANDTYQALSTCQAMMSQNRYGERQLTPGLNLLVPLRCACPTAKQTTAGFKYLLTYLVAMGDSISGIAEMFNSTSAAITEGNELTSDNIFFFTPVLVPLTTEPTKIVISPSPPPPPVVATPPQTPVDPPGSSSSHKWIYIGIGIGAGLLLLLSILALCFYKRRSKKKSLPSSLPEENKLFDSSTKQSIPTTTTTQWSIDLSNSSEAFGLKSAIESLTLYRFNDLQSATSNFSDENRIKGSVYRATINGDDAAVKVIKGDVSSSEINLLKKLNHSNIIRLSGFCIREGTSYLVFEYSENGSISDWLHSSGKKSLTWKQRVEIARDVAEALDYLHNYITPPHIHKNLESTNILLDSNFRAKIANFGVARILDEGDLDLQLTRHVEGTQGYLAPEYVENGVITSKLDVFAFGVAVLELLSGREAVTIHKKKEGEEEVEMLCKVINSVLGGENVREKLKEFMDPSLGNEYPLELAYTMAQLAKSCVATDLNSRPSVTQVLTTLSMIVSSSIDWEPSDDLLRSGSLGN

With “RSV coat protein (CP), untagged (from UniProt P68559 1-322)” the binding (AtLYK4-FLAG-HA) was “no binding” and the binding [1] was “no binding”.
